Assay results taken from publication PMC7303132.
No constants are given. Whether binding was seen depends on the method and setting. For some assays here: Binding seen in cells or lysates may run through a third protein. For some assays here: Tags and fused reporters may be left off the sequences shown.

T1: Proline-rich protein PRR19 (mouse (endogenous in testis)) (UniProt B2RW88)
T1 sequence: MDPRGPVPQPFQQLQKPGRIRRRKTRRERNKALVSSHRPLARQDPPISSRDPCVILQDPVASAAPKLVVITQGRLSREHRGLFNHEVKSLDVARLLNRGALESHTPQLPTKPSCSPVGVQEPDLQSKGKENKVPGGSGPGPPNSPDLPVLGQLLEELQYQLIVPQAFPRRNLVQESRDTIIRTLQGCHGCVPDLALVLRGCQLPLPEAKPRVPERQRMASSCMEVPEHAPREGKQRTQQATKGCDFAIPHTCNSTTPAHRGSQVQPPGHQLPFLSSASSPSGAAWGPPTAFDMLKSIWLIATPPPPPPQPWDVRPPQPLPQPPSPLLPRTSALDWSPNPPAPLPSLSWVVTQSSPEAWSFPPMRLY

T2: PRR19 (yeast two-hybrid fusion) (mouse) (UniProt B2RW88)
T2 sequence: T1 sequence

B1: HEI10 ubiquitin ligase (protein, UniProt D3Z3K2 1-276)
chain: MSLCEDMLLCNYRKCRIKLSGYAWVTACSHIFCDQHGSGEFSRSPAICPACNSTLSGKLDIVRTELSPSEEYKAMVLAGLRPEVVLDISSRALAFWTYQVHQERLYQEYNFSKAENHLKQMEKMYMQQIQSKNIELTSMKGEVISMKKVLEEYKKKFSDISEKLMERNRQYQKLQGLYDSLRLRNITIASQEGSLEPGMIPQSGVFGFPPGNNSKFSLDHIPVGNQGGGDEDVQFRPFFVCSPTAPEPINNFFSFASPSHEAEQQVCSRAFKAKRI
B2: HEI10 (yeast two-hybrid fusion) (protein, UniProt D3Z3K2 1-276)
chain: B1 chain

Legend:
[1] = molecular target: T1, Proline-rich protein PRR19 (mouse (endogenous in testis)); test: co-IP; mouse testis extracts (50 mM Tris-HCl pH 7.5, 150 mM NaCl, 0.5% Triton X-100, diluted two times); guinea pig anti-PRR19, anti-CNTD1 or IgG crosslinked to Dynabeads Protein A, overnight at 4 °C; immunoblot
[2] = molecular target: T2, PRR19 (yeast two-hybrid fusion) (mouse); test: two-hybrid; pairwise, Y2HGold yeast strain, Gal4-BD and Gal4-AD vectors; growth 2-3 days on (-Leu, -Trp, -His, -Ade) plates

Binder	binding [1]	binding [2]
B1	no binding	
B2		no binding
